A short description of the experiment: qHTS Assay for Modulators of Lamin A Splicing. To be noted: HeLa LMNA splicing GFP/RFP minigene ratio, 48 h. The method, boiled down:
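Read-out is the ratio of GFP to DsRed2 object intensity, acquired by 488 nm laser-scanning cytometry on HeLa lamin A-EGFP minigene reporter cells. Compound incubation 48 hrs at 37 °C in Opti-MEM with 2% FBS; DMSO 0.5% final.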
Background: qHTS replaces the single test concentration by a dilution series.

[1] abbreviates: measured here: RFP viability control channel.
[2] abbreviates: measured here: GFP splicing reporter channel.

Each structure is given as a SMILES string. This is one part of the list. The main result of the screen is listed elsewhere. These columns were measured beside it and carry no call. The list favours compounds with an active or inconclusive main result. Words in brackets tell the shape of the fitted curve; partial curves, single points and poor fits give uncertain potencies.

As a reminder, the AC50 is the concentration giving half of the maximal activity seen. `Cc1ccc(C(=O)NC2c3ccccc3-c3ccccc32)cc1`: under setting [1], the AC50 is 2.82 µM [rising, full curve].

Turning to `O=C(Cc1cnn(-c2ccccc2)c1)c1ccc(O)c(O)c1O`, the concentration at half-maximal activity (AC50) reads like this: under setting [2], 31.6 µM [rising, single point]; under setting [1], 31.6 µM [rising, single point].

On to `O=C(Cn1nnc(-c2ccc(CN3CCOCC3)cc2)n1)Nc1nc(-c2ccccc2)cs1`, for which the AC50 by setting is: under setting [2], 31.6 µM [rising, single point]; under setting [1], 31.6 µM [rising, single point].

In the case of `CCOc1ccccc1C1N=C(c2ccc(OC)cc2)CC(c2ccccc2O)N1` (stereo not given), the AC50 was 14.1 µM [falling, partial curve] under setting [2] and 15.8 µM [falling, single point] under setting [1].

As for `CNC1C(OC2C(O[C@@H]3C(O)C(O)[C@@H](N=C(N)N)C(O)C3N=C(N)N)OC(C)[C@@]2(O)CO)OC(CO)C(O)C1O` (stereo not given in full), the AC50 was 0.0251 µM [falling, full curve, poor fit] under setting [2] and 35.5 µM [falling, single point] under setting [1].

`Cc1nn(-c2cccc(C(F)(F)F)c2)c(Cl)c1/C=N/Nc1cccc(C(=O)O)c1`: the AC50 under setting [2] is 11.2 µM [rising, partial curve].

Take `COc1ccc(/C=N/N(Cc2ccccc2)c2ccccc2)cc1O`: under setting [1], the AC50 was 35.5 µM [rising, single point].

Regarding `COc1ccc(-c2csc3ncnc(Nc4cc(OC)cc(OC)c4)c23)cc1`, the AC50 under setting [2] was 17.8 µM [falling, single point].

On to `CC(C)c1ccc(NC(=O)Cn2cc(S(=O)(=O)Cc3ccccc3Cl)c3ccccc32)cc1`, for which, under setting [2], the AC50 was 1.78 µM [falling, full curve].

For the compound `Cc1cc(C)cc(NC(=O)c2cc(S(=O)(=O)N3CCc4ccccc43)cn2C)c1`, the AC50 under setting [1] is 22.4 µM [falling, partial curve, poor fit].

Turning to `CCOC(=O)N1CCC(c2cc(=O)n3[nH]c(C)c(-c4ccc(F)cc4)c3n2)CC1`, under setting [1], the AC50 was 35.5 µM [rising, single point].

As for `CC(C)CC(=O)N/C(N)=N/c1nc2ccccc2s1`, the AC50 under setting [1] was 31.6 µM [rising, single point].

Consider `Cc1ccc(S(=O)(=O)N2CCOCC2)cc1C(=O)OCC(=O)Nc1ccc2c(c1)OCO2`, for which the half-maximal activity concentration (AC50) reads like this: under setting [2], 3.98 µM [rising, full curve]; under setting [1], 3.16 µM [rising, full curve, poor fit].

With `CC1CCN(C(=O)CSc2nc3ccccc3nc2Cc2ccccc2)CC1`, the AC50 under setting [2] is 1 µM [rising, full curve, poor fit].

Turning to `COC(=O)c1ccc(NC(=O)Cn2nc(C)cc2C)cc1`, under setting [1], the AC50 is 14.1 µM [rising, single point].

Take `CSc1nc2sc3c(c2c(=O)[nH]1)CCCC3`: the AC50 under setting [2] was 7.94 µM [rising, partial curve].

With `CCOc1ccc(CN2C(=O)c3ccccc3C2C(=O)NCCc2ccc(OC)c(OC)c2)cc1` (stereo not given), the concentration at half-maximal activity (AC50) under setting [2] was 10 µM [falling, partial curve, poor fit].

Take `O=C(NC1CCCCCC1)C1CCN(S(=O)(=O)c2cnc[nH]2)CC1`: under setting [1], the AC50 is 39.8 µM [falling, partial curve, poor fit].

`Nc1ccc(C23CC4CC(CC(CO)(C4)C2)C3)cc1`: the AC50 under setting [2] is 14.1 µM [rising, single point] and the AC50 under setting [1] is 15.8 µM [rising, single point].

Take `CCCCOc1ccc(C(=O)Nc2ccc(C)cc2[N+](=O)[O-])cc1`: the AC50 under setting [1] is 11.2 µM [rising, partial curve].

Consider `CCOc1ccc(CNS(=O)(=O)c2ccc3c(c2)CCCN3C(C)=O)cc1`, for which, under setting [2], the AC50 was 0.02 µM [falling, full curve, poor fit].

Consider `O=C(CCCc1c[nH]c2ccccc12)Nc1ccc2ccccc2c1`, for which the concentration at half-maximal activity (AC50) is, setting by setting: under setting [2], 14.1 µM [rising, partial curve]; under setting [1], 17.8 µM [rising, single point].

As for `Cc1ccc(NS(=O)(=O)c2cccc(C(=O)NN3CCOCC3)c2)cc1`, under setting [1], the half-maximal activity concentration (AC50) was 1.26 µM [falling, full curve, poor fit].

Take `O=C(NC(=S)N1CCCc2ccccc21)c1ccc([N+](=O)[O-])cc1`: the AC50 under setting [1] is 35.5 µM [rising, single point].

As to `CCNC(=S)N/N=C/c1ccc(-c2ccccc2)o1`, the AC50 under setting [1] was 0.316 µM [falling, full curve, poor fit].

In the case of `COc1ccc(-n2cc(C(=O)Oc3cc(C)cc(C)c3)c3ccccc3c2=O)cc1`, under setting [1], the AC50 is 12.6 µM [rising, partial curve].

Regarding `CCOC(=O)c1[nH]c(C)c(/C(O)=C2\C(=O)C(=O)N(CCN3CCOCC3)C2c2cccs2)c1C` (stereo not given), the half-maximal activity concentration (AC50) under setting [1] is 35.5 µM [falling, single point].

Regarding `COc1ccc(/C=N/NS(=O)(=O)c2ccc(C)cc2)cc1OC(=O)c1ccc(C)cc1`, under setting [1], the AC50 was 31.6 µM [rising, single point].

With `Cc1ccc(NC(=O)CN(C)C(=O)Cn2ncc(Cl)c(Cl)c2=O)cc1`, the AC50 under setting [1] is 35.5 µM [rising, single point].

Take `COc1ccccc1CN1CCN(Cc2nc(Cc3ccccc3)no2)CC1`: the half-maximal activity concentration (AC50) reads like this: under setting [2], 8.91 µM [falling, partial curve, poor fit]; under setting [1], 0.00282 µM [falling, full curve, poor fit].

As for `Cc1cc2ncn(-c3ncnc4sc5c(c34)CCCC5)c2cc1C`, under setting [1], the AC50 is 20 µM [rising, single point].

For the compound `COc1ccc(NS(=O)(=O)c2ccc3[nH]c4c(c3c2)CCCCC4)cc1`, the AC50 under setting [2] was 35.5 µM [falling, partial curve, poor fit].

In the case of `CC1(C)Cc2nc3sc4c(=O)n(CC(=O)NCc5ccccc5)cnc4c3cc2CO1`, the AC50 under setting [2] was 31.6 µM [falling, single point] and the AC50 under setting [1] is 12.6 µM [falling, partial curve, poor fit].

`COc1ccc(Oc2ncc(CN3CCN(c4ccccc4)CC3)s2)cc1`: under setting [1], the AC50 was 35.5 µM [rising, single point].

As to `CC(=O)Nc1c(C)nn(-c2ccccc2)c1N1CCC(C(=O)Nc2ccccc2F)CC1`, the AC50 under setting [1] was 35.5 µM [rising, partial curve, poor fit].

As to `CCCCN1C[C@H](O)[C@@H](O)[C@H](O)[C@H]1CO`, under setting [1], the AC50 was 7.94 µM [falling, partial curve, poor fit].
